{
  "source": "paper PMC6301270",
  "about": "(MedChemComm, 2018)",
  "key": {"[1]": {"tested_on": "T.b. brucei (strain 427) bloodstream form parasites", "assay": "Trypanosoma brucei assay, dose–response (this study)", "format": "cell-based"}, "HeLa cells": {"tested_on": "HeLa cells", "assay": "HeLa cell assay (cytotoxicity)", "format": "cell-based", "details": "Homo sapiens, Table 2, 48 hours, resazurin", "protocol": "HeLa cells were cultured in DMEM medium supplemented with 10% fetal bovine serum and antibiotics (penicillin/streptomycin/amphotericin B) at 37 °C in a 5% CO2 incubator. On the day prior to compound addition, cells were plated in 96-well plates at 2 × 10^4 cells per well. Compounds were added to the cells in 3-fold serial dilutions and incubation at 37 °C in a 5% CO2 incubator continued for 48 hours. Twenty μl resazurin reagent (0.5 mM resazurin in phosphate-buffered saline) was added to each well and, after a 2-hour incubation, fluorescence (Exc560/Em590) was measured in a plate reader. Percentage cell viability in drug-treated wells was calculated from the fluorescent readings obtained relative to those in wells containing control, untreated cells. Plots of % cell viability vs. log[compound] were used to determine IC50 values by non-linear regression analysis using GraphPad Prism."}},
  "data": [
    {"smiles": "CN1CCCC1CCO[C@](C)(c1ccccc1)c1ccc(Cl)cc1", "note": "(stereo partly drawn) [Compound 62, ClC1=CC=C([C@@](C)(C2=CC=CC=C2)OCCC3N(C)CCC3)C=C1]", "values": [
      {"measurement": "IC50", "setting": "[1]; Trypanosoma brucei, Table 2, remaining Pathogen Box, 48 hours at 37 °C, resazurin", "result": 3.5, "unit": "µM"},
      {"measurement": "Selectivity index", "setting": "[1]; calculated as IC50(HeLa)/IC50(T.bb)", "result": "> 7.1"},
      {"measurement": "IC50", "setting": "HeLa cells", "result": "> 25", "unit": "µM"}
    ]}
  ]
}
